No constants are given. Whether binding was seen depends on the method and setting. Some results given as binding are weak or reduced against the parent protein; the word gives no strength.
Target: Link_TSG6 (recombinant Link module from human TSG-6) (human) (UniProt P98066)
Experiment: SPR; Link_TSG6 amine-coupled to a C1 chip (800–1000 RU), chemokine as analyte; BIAcore 3000; 10 mM HEPES, 150 mM NaCl, 0.05% Tween 20, pH 7.4; 40 μl/min; 1:1 Langmuir model; apparent affinities; both purified

By UniProt entry, the sequences of proteins in these tests, tags left out. Where a name states a change or a piece, a line headed by the entry shows the natural chain unless it says otherwise. Chains listed by the source or under a name are the forms on record and can include a tag or linker. Residues count along the entry.
UniProt P98066, residues 36-133: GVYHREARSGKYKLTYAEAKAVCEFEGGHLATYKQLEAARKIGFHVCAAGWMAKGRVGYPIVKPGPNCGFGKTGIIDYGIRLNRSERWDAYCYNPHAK
CCL2 R18A/K19A (P13500, form named): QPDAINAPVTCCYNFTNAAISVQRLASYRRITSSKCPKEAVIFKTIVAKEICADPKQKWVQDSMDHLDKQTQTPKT
CCL5 R44A/K45A/R47A (P13501, form named): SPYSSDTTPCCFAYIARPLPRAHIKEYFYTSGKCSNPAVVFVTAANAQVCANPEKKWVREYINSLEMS
CCL7 K18A/K19A/K22A (P80098, form named): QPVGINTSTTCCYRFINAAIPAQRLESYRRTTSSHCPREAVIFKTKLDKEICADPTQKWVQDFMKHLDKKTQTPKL

Row | binding | Substance
1 | no binding (tested: 1000 nM) | CCL2 R18A/K19A (from UniProt P13500 24-99) (ligand)
2 | no binding (tested: 200 nM) | CCL5 R44A/K45A/R47A (from UniProt P13501 24-91) (ligand)
3 | binds weakly | CCL7 K18A/K19A/K22A (from UniProt P80098 24-99) (ligand)
